PubChem BioAssay AID1159594 – NIAID | 2016

Screen: 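Genes required for a TNF reporter response to diacyl lipopeptide stimulation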
Cells: human THP-1 B5 reporter cells, PMA-differentiated into macrophage-like cells
Reagent: single siRNA against human genes
Timing: 48 to 72 hours after siRNA transfection; ligand exposure 4 hours
Treatment: Pam2CSK4 (TLR2/6 agonist) stimulation for 4 hours before lysis; dose not given
Measured: 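Robust z-score, relative to negative controls, of the firefly/renilla ratio from a TNF promoter reporter, after per-plate median/MAD scaling, mean of replicate screens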
Direction: TNF reporter z-score: higher = stronger TNF promoter reporter activity
Active means: 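The depositor sorts siRNAs into z-score bands with cut-offs of 2.5, 2, 1.5 and 1; grade 50 and above, meaning |z| of 1.5 or more, counts as active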
Meaning of the calls: active = z-score beyond ±1.5 (either direction); inactive = z-score within ±1.5
Here is a random part of 756 deposited reagents. In the full data, 130 (17%) were called active. 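Active calls cover both falls and rises of reporter activity; each row reflects one siRNA, not a gene-level verdict.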 The numbers tell different reagents against one gene apart. No sequences are given here. Not given: the amount of reagent.

no.	gene	reagent	TNF reporter z-score, replicate mean	outcome
1	BTK (GeneID 695)	1	0.3	inactive
2	BTK (GeneID 695)	2	-0.891	inactive
3	BTK (GeneID 695)	3	-0.901	inactive
4	BTK (GeneID 695)	4	0.121	inactive
5	BTK (GeneID 695)	5	-0.0216	inactive
6	BTK (GeneID 695)	6	-0.381	inactive
7	MAPKAPK2 (GeneID 9261)	1	0.169	inactive
8	MAPKAPK2 (GeneID 9261)	2	-0.431	inactive
9	MAPKAPK2 (GeneID 9261)	3	-0.853	inactive
10	MAPKAPK2 (GeneID 9261)	4	-0.215	inactive
11	MAPKAPK2 (GeneID 9261)	5	0.65	inactive
12	MAPKAPK2 (GeneID 9261)	6	-1.31	inactive
13	NFKBIB (GeneID 4793)	1	-0.619	inactive
14	NFKBIB (GeneID 4793)	2	-0.794	inactive
15	NFKBIB (GeneID 4793)	3	-1.19	inactive
16	NFKBIB (GeneID 4793)	4	-0.244	inactive
17	NFKBIB (GeneID 4793)	5	0.391	inactive
18	NFKBIB (GeneID 4793)	6	-0.162	inactive
19	TLR6 (GeneID 10333)	1	0.22	inactive
20	TLR6 (GeneID 10333)	2	0.521	inactive
21	TLR6 (GeneID 10333)	3	-0.447	inactive
22	TLR6 (GeneID 10333)	4	0.65	inactive
23	TLR6 (GeneID 10333)	5	0.0147	inactive
24	TLR6 (GeneID 10333)	6	-0.355	inactive
25	PIK3R2 (GeneID 5296)	1	0.928	inactive
26	PIK3R2 (GeneID 5296)	2	-1.29	inactive
27	PIK3R2 (GeneID 5296)	3	0.0503	inactive
28	PIK3R2 (GeneID 5296)	4	-0.534	inactive
29	PIK3R2 (GeneID 5296)	5	-0.936	inactive
30	PIK3R2 (GeneID 5296)	6	-1.01	inactive
31	MAP2K2 (GeneID 5605)	1	-1.17	inactive
32	MAP2K2 (GeneID 5605)	2	-0.0895	inactive
33	MAP2K2 (GeneID 5605)	3	-0.964	inactive
34	MAP2K2 (GeneID 5605)	4	0.102	inactive
35	MAP2K2 (GeneID 5605)	5	-0.858	inactive
36	MAP2K2 (GeneID 5605)	6	-0.671	inactive
37	TIRAP (GeneID 114609)	1	-3.95	active
38	TIRAP (GeneID 114609)	2	-2.53	active
39	TIRAP (GeneID 114609)	3	-4.35	active
40	TIRAP (GeneID 114609)	4	0.602	inactive
41	TIRAP (GeneID 114609)	5	-0.541	inactive
42	TIRAP (GeneID 114609)	6	-4.12	active
43	IKBKE (GeneID 9641)	1	-1.03	inactive
44	IKBKE (GeneID 9641)	2	-0.128	inactive
45	IKBKE (GeneID 9641)	3	-0.985	inactive
46	IKBKE (GeneID 9641)	4	0.999	inactive
47	IKBKE (GeneID 9641)	5	-0.0605	inactive
48	IKBKE (GeneID 9641)	6	-0.119	inactive
49	PIK3CD (GeneID 5293)	1	-1.25	inactive
50	PIK3CD (GeneID 5293)	2	-0.438	inactive
51	PIK3CD (GeneID 5293)	3	0.806	inactive
52	PIK3CD (GeneID 5293)	4	0.32	inactive
53	PIK3CD (GeneID 5293)	5	0.78	inactive
54	PIK3CD (GeneID 5293)	6	0.839	inactive
55	MAP2K7 (GeneID 5609)	1	-1	inactive
56	MAP2K7 (GeneID 5609)	2	-0.444	inactive
57	MAP2K7 (GeneID 5609)	3	-0.226	inactive
58	MAP2K7 (GeneID 5609)	4	-0.183	inactive
59	MAP2K7 (GeneID 5609)	5	-2.25	active
60	MAP2K7 (GeneID 5609)	6	-1.16	inactive
61	IKBKG (GeneID 8517)	1	-1.97	active
62	IKBKG (GeneID 8517)	2	-0.625	inactive
63	IKBKG (GeneID 8517)	3	-0.538	inactive
64	IKBKG (GeneID 8517)	4	-1.77	active
65	IKBKG (GeneID 8517)	5	-0.0765	inactive
66	IKBKG (GeneID 8517)	6	-1.18	inactive

The list goes on, starting with the last 12 of the part before.
no.	gene	reagent	TNF reporter z-score, replicate mean	outcome
55	MAP2K7 (GeneID 5609)	1	-1	inactive
56	MAP2K7 (GeneID 5609)	2	-0.444	inactive
57	MAP2K7 (GeneID 5609)	3	-0.226	inactive
58	MAP2K7 (GeneID 5609)	4	-0.183	inactive
59	MAP2K7 (GeneID 5609)	5	-2.25	active
60	MAP2K7 (GeneID 5609)	6	-1.16	inactive
61	IKBKG (GeneID 8517)	1	-1.97	active
62	IKBKG (GeneID 8517)	2	-0.625	inactive
63	IKBKG (GeneID 8517)	3	-0.538	inactive
64	IKBKG (GeneID 8517)	4	-1.77	active
65	IKBKG (GeneID 8517)	5	-0.0765	inactive
66	IKBKG (GeneID 8517)	6	-1.18	inactive
67	ARF6 (GeneID 382)	1	0.349	inactive
68	ARF6 (GeneID 382)	2	0.552	inactive
69	ARF6 (GeneID 382)	3	0.552	inactive
70	ARF6 (GeneID 382)	4	-1.85	active
71	ARF6 (GeneID 382)	5	-0.271	inactive
72	ARF6 (GeneID 382)	6	0.41	inactive
73	LBP (GeneID 3929)	1	-0.17	inactive
74	LBP (GeneID 3929)	2	-0.859	inactive
75	LBP (GeneID 3929)	3	0.615	inactive
76	LBP (GeneID 3929)	4	-1.28	inactive
77	LBP (GeneID 3929)	5	-0.142	inactive
78	LBP (GeneID 3929)	6	0.395	inactive
79	PIK3CA (GeneID 5290)	1	0.285	inactive
80	PIK3CA (GeneID 5290)	2	-0.51	inactive
81	PIK3CA (GeneID 5290)	3	-1.14	inactive
82	PIK3CA (GeneID 5290)	4	-0.0584	inactive
83	PIK3CA (GeneID 5290)	5	-0.717	inactive
84	PIK3CA (GeneID 5290)	6	0.464	inactive
85	PIK3CG (GeneID 5294)	1	-2.16	active
86	PIK3CG (GeneID 5294)	2	-0.331	inactive
87	PIK3CG (GeneID 5294)	3	-0.0584	inactive
88	PIK3CG (GeneID 5294)	4	-0.791	inactive
89	PIK3CG (GeneID 5294)	5	-0.734	inactive
90	PIK3CG (GeneID 5294)	6	-1.53	active
91	IRAK2 (GeneID 3656)	1	-0.26	inactive
92	IRAK2 (GeneID 3656)	2	0.0042	inactive
93	IRAK2 (GeneID 3656)	3	0.541	inactive
94	IRAK2 (GeneID 3656)	4	0.0853	inactive
95	IRAK2 (GeneID 3656)	5	-2	active
96	IRAK2 (GeneID 3656)	6	-0.854	inactive
97	MAP2K6 (GeneID 5608)	1	-0.313	inactive
98	MAP2K6 (GeneID 5608)	2	-0.525	inactive
99	MAP2K6 (GeneID 5608)	3	0.454	inactive
100	MAP2K6 (GeneID 5608)	4	0.464	inactive
101	MAP2K6 (GeneID 5608)	5	0.0382	inactive
102	MAP2K6 (GeneID 5608)	6	0.697	inactive
103	CASP8 (GeneID 841)	1	0.15	inactive
104	CASP8 (GeneID 841)	2	-0.508	inactive
105	CASP8 (GeneID 841)	3	0.0536	inactive
106	CASP8 (GeneID 841)	4	-0.513	inactive
107	CASP8 (GeneID 841)	5	0.259	inactive
108	CASP8 (GeneID 841)	6	-0.55	inactive
109	TLR1 (GeneID 7096)	1	2.39	active
110	TLR1 (GeneID 7096)	2	-0.323	inactive
111	TLR1 (GeneID 7096)	3	-0.51	inactive
112	TLR1 (GeneID 7096)	4	0.934	inactive
113	TLR1 (GeneID 7096)	5	-1.18	inactive
114	TLR1 (GeneID 7096)	6	-0.207	inactive
